# Values quoted from earlier work, collected in patent US10391173B2, “Anti-ar agent and radiation therapy for androgen receptor positive cancer” (The Cleveland Clinic Foundation, priority 2016, dated 2019).
# At least one structure is not confirmed: it was looked up by name or label, or the drawing left a doubt.
# System: AR-positive, ER/PR-negative metastatic breast cancer
# Details: phase II; cited from earlier work
smiles,measurement,value
CC(O)(CS(=O)(=O)c1ccc(F)cc1)C(=O)Nc1ccc(C#N)c(C(F)(F)F)c1 (stereo not shown) [bicalutamide],Clinical benefit,modest clinical benefit
